Results are given in words; binding and its absence hold for the method and conditions named. In cells and extracts the contact can be indirect. A yes stands for co-enrichment or nearness to the bait. Other partners may have been found. Tags and fused reporters may be left off the sequences shown.

Chains of the proteins cited; added tags and fusions are not shown.
UniProt Q13283: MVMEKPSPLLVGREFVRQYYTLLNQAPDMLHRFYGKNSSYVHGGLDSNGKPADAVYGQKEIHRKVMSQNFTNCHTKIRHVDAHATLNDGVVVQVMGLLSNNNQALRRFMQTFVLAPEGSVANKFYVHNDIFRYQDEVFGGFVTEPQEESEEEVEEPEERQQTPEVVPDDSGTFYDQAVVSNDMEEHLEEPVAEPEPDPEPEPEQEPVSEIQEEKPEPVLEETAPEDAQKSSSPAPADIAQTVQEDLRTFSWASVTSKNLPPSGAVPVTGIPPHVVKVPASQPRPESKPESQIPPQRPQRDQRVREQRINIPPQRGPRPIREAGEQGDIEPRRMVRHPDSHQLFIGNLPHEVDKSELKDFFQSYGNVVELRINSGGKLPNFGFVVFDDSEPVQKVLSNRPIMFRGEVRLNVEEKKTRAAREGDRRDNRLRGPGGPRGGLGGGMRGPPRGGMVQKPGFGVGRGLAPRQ

Consider one substance from article PMC10202183.

For this test, the target named is T1, C-terminally GFP-tagged SERBP1 (SERPINE1 mRNA binding protein 1), full length (human) (UniProt Q8NC51).
T1 sequence: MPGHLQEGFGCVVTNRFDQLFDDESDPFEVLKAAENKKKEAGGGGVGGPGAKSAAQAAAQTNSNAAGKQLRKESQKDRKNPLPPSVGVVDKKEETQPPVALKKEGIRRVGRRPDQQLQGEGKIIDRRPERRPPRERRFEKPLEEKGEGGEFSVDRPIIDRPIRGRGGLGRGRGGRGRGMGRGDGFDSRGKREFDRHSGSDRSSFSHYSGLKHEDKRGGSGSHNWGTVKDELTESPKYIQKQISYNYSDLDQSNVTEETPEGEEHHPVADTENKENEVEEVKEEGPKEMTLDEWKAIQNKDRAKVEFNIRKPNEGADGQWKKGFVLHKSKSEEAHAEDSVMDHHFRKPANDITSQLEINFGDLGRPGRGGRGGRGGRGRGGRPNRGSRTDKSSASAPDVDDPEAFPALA
Description: affinity purification with mass spectrometry; anti-GFP IP of GFP-SERBP1 from HEK293 lysate against GFP empty vector; SDS-PAGE, silver staining, LC-MS/MS.

For the substance “G3BP1, endogenous in HEK293 cells (from UniProt Q13283 1-466)”, the binding result is “binds”.
